Assay results taken from patent US10722467B2, “Remote loading of sparingly water-soluble drugs into liposomes” (ZONEONE PHARMA, INC., priority 2013, dated 2020).
At least one structure is not confirmed: it was looked up by name or label, or the drawing left a doubt.

Test: Remote loading of deferasirox precipitate into liposomes using an acetate gradient
Assay type: physicochemical
Conditions: for loading efficiency, calcium acetate gradient liposomes vs sodium sulfate control liposomes: Example 14, 120 mM calcium acetate pH 8, 65°C 1 h

## O=C(O)c1ccc(-n2nc(-c3ccccc3O)nc2-c2ccccc2O)cc1 [deferasirox]
3 mol HSPC/0.5 mol Chol, interior 120 mM sodium sulfate (control), 100 g DFX/mol phospholipid, listed as DFX
  DFX loading efficiency: 3.3%
  loading efficiency, calcium acetate gradient liposomes vs sodium sulfate control liposomes: 5 fold
Listed as Deferasirox
  loading efficiency, calcium acetate gradient liposomes vs sodium sulfate control liposomes: at least 5 fold
Example 16, calcium acetate vs sodium sulfate
  loading, acetate gradient liposomes over control liposomes: 28 fold
Both POPC and HSPC liposomes containing calcium acetate
  loading efficiency: > 90%
Target 200 g DFX/mol phospholipid
  efficiency, 250 or 500 mM vs 120 mM internal calcium acetate: at least two-fold greater
